# Results from one PubChem assay

The results are deposited in PubChem (AID977630; Broad Institute, 2014).

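Mixed E. coli culture in which the wild-type GFP-labelled strain's fluorescence is read after 24 h, reported as change in activity. Percent-style change in GFP activity at 50 µM; values more negative mean stronger inhibition. Active needs green reporter loss at least twice the red loss with limited overall growth inhibition; inconclusive means no clear call.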

Common to all entries: at 50 µM (top of the series). Every entry below has the call inconclusive. These entries are mostly ones the record files as inconclusive; other results of the assay are not listed here.

| SMILES | activity change |
|---|---|
| `C[C@@H]1CN([C@@H](C)CO)S(=O)(=O)c2ccc(Br)cc2O[C@H]1CN(C)C(=O)c1ccccc1` | -0.892 |
| `NS(=O)(=O)c1ccc(Nc2c([N+](=O)[O-])cncc2[N+](=O)[O-])cc1` | -8.854 |
| `Cn1nc(C(C)(C)C)c([N+](=O)[O-])c1C(=O)Nc1ccc(Br)cc1` | -34.08 |
| `Fc1ccc(CSc2nnc(-c3ccco3)o2)cc1` | 2.787 |
| `Cc1c(C(=O)Nc2ccccc2)c2cc(O)ccc2n1Cc1ccccc1` | -0.714 |
| `O=C(NCCc1ccccn1)c1cccc(S(=O)(=O)N2CCc3ccccc32)c1` | -7.15 |
| `COc1ccccc1-c1nnc(C2CCN(S(=O)(=O)c3ccccc3[N+](=O)[O-])CC2)o1` | -41.97 |
| `CCCNC(=O)c1cc(C2CCCN(S(=O)(=O)c3cccc4cccnc34)C2)on1` (centres undefined) | 11.86 |
| `Nc1nc(SCc2ccccc2)c2ncn(Cc3ccccc3)c2n1` | -45.24 |
| `C=CCn1c(CCSCc2ccc(OC)c(C)c2)n[nH]c1=S` | -23.61 |
| `CCOc1ccc(S(=O)(=O)N(C)c2ccc(OCC(=O)NCc3cccnc3)cc2)cc1` | -16.89 |
| `Cc1nnc2sc(SCC(=O)Nc3ccc(Br)cc3)nn2c1=O` | -19.25 |
| `O=S1(=O)N[C@H](Cc2ccccc2)COc2cc(N3CCSCC3)ccc21` | -13.21 |
| `Cc1ccc2nc(SCC(=O)Nc3c(F)cccc3F)[nH]c2c1` | -5.044 |
| `Cc1ccc(-n2cc(CNCCN3CCOC3=O)c(-c3ccc(F)cc3)n2)cc1` | 6.897 |
| `O=C(COC(=O)c1n[nH]c2ccccc12)Nc1cccc(S(=O)(=O)N2CCOCC2)c1` | -33.84 |
| `O=C(NCc1nc2ccccc2[nH]1)c1ccc(S(=O)(=O)N2CCCC2)cc1` | -26.61 |
| `CC(C)Oc1ccc(C(CC(=O)O)NC(=O)C(Sc2ccccc2)c2ccccc2)cc1` (centres undefined) | 2.064 |
| `O=C(CSc1ccccc1)Nc1cccc(NC(=O)c2ccco2)c1` | -32.9 |
| `O=C(Nc1cc(S(=O)(=O)N2CCOCC2)ccc1N1CCOCC1)c1ccc([N+](=O)[O-])s1` | -6.552 |
| `Cc1cc([N+](=O)[O-])nn1CC(=O)Nc1cc(F)ccc1F` | -6.517 |
| `C(=C/c1nccc2c1[nH]c1ccccc12)/c1ccc2c(c1)OCO2` | -22.47 |
| `CN(C)CCN(C(=O)c1ccc2c(c1)CCCC2)c1nc2c(F)cccc2s1` | -6.395 |
| `C=C1CCC(N(O)c2cc(C)on2)C(=C)CCC2C1CC2(C)C` (centres undefined) | -10.29 |
| `COC(=O)c1cc(S(=O)(=O)NCc2ccc3c(c2)OCO3)cn1C` | -11.12 |
| `CC1=CC(C)(C)N(C(=O)CSc2nnc(C)s2)c2ccc(C)cc21` | 16.29 |
| `CCN1CCN(c2c(Cl)cccc2NC(=O)c2ccc([N+](=O)[O-])o2)CC1` | -52.53 |
| `CS(=O)(=O)NCCSc1cc(C(F)(F)F)nc2ccccc12` | 22.16 |
| `Cn1cc([N+](=O)[O-])c(C(=O)Nc2ccc(-c3nc4ccccc4[nH]3)cc2)n1` | -38.72 |
| `CCOc1ccc(CCNC(=O)CCn2ccc3cc(S(=O)(=O)N4CCCC4)ccc32)cc1` | -32.32 |
| `COc1ccc(N2C(=O)C3C(c4ccc(C(=O)O)cc4)NC(Cc4ccccc4)(C(=O)O)C3C2=O)c([N+](=O)[O-])c1` (centres undefined) | 17.92 |
| `Nc1ccc(C(=O)OCC(=O)N2CCc3ccccc3C2)cc1[N+](=O)[O-]` | -42.14 |
| `Cc1c(C(=O)NCCSCc2cccc(C(F)(F)F)c2)cnn1-c1ccc(F)cc1` | -31.1 |
| `COc1ccccc1CC(=O)NCCCc1ccccc1` | 13.53 |
| `Fc1cccc(Cl)c1CSc1ccc(-c2ccco2)nn1` | -21.48 |
| `O=C(Nc1nnc(Cc2ccc(Cl)cc2)s1)c1ccncc1` | -23.39 |
| `COc1ccc2c(c1)-c1nc(N)sc1CC2` | 6.497 |
| `CC1CCCC(NC(=O)COC(=O)Cc2c[nH]c3ccccc23)C1C` (centres undefined) | -2.441 |
| `COc1cc2[nH]c(=S)nc(NCc3ccccc3)c2cc1OC` | -6.056 |
| `CS(=O)(=O)c1ccc(C(=O)Nc2nc(-c3ccco3)c(-c3ccco3)s2)cc1` | -14.22 |
| `COCc1c(C#N)c(NCCc2ccc(F)cc2)nc(C)c1[N+](=O)[O-]` | -7.541 |
| `O=C(O)C1(Nc2ccc([N+](=O)[O-])cc2[N+](=O)[O-])CCCC1` | -51.55 |
| `Cc1ccc(Cn2cnc3ccccc32)cc1` | -28.22 |
| `CCn1nnc(NC(=O)c2ccc([N+](=O)[O-])o2)n1` | -7.365 |
| `COc1cc2[nH]c(=S)nc(NCCc3ccc(C)cc3)c2cc1OC` | -31.14 |
| `Fc1cccc(Cc2noc(CN3CCCCC3CCc3ccccn3)n2)c1` (centres undefined) | -26.93 |
| `COc1ccc(CC(=O)Oc2ccc(C)cc2C)cc1` | -12.24 |
| `NS(=O)(=O)c1ccc(NC(=O)CCC(=O)O)cc1` | 24.83 |
| `NS(=O)(=O)c1cccc(NC(=O)CSc2nc3ccccc3n2-c2ccccc2)c1` | -47.8 |
| `Cc1cccc(OCCC(=O)Nc2ccc(F)c(F)c2)c1` | -9.606 |
| `O=[N+]([O-])c1ccc(Cl)cc1NCc1cccnc1` | -18.96 |
| `O=C(Cc1cccc(NC(=O)C2CCCN(C(=O)CCc3ccccc3)C2)c1)Nc1cccc(C(=O)N2CCCCC2)c1` (centres undefined) | -19.85 |
| `O=C(NC1CCCC1)c1ccc([N+](=O)[O-])s1` | -10.13 |
| `CN1CCC(c2c[nH]c3ccccc23)C1` (centres undefined) | 10.84 |
| `Cc1nn(-c2ccccc2)c(C)c1CN(C)C(=O)c1ccc(S(=O)(=O)NCc2ccco2)cc1` | -37.52 |
| `O=S(=O)(NCc1cc(-c2ccccc2)no1)c1ccccc1Cl` | -6.977 |
| `N#Cc1ccccc1CSc1nc2ccc(NC(=O)c3ccccc3C(=O)O)cc2s1` | -33.14 |
| `CCC(=O)c1ccc(OCC(=O)Nc2nc(C)cs2)cc1` | -29.97 |
| `Cc1ccc(S(=O)(=O)NC(C)C(=O)NCc2ccc(Cl)cc2)cc1` (centres undefined) | 2.03 |
| `C=CCn1c(C)cc(C(=O)COC(=O)CNC(=O)c2ccccc2)c1C` | -11.03 |
| `CN1CCN(CC(=O)c2cc(C(C)(C)C)c(O)c(C(C)(C)C)c2)CC1` | -21.74 |

The first 4 entries again:

SMILES	activity change
C[C@@H]1CN([C@@H](C)CO)S(=O)(=O)c2ccc(Br)cc2O[C@H]1CN(C)C(=O)c1ccccc1	-0.892
NS(=O)(=O)c1ccc(Nc2c([N+](=O)[O-])cncc2[N+](=O)[O-])cc1	-8.854
Cn1nc(C(C)(C)C)c([N+](=O)[O-])c1C(=O)Nc1ccc(Br)cc1	-34.08
Fc1ccc(CSc2nnc(-c3ccco3)o2)cc1	2.787